{"source": "PubChem BioAssay AID504444", "about": "(National Center for Advancing Translational Sciences (NCATS), 2011)", "note": "In all, about 360,000 compounds went through this assay and about 7,500 (2.1%) were called active. This list was built around the results that the source calls inconclusive (neither active nor inactive); the mix of calls is not that of the screen. Calls come from the whole dose curve; as a rule, active = well fitted inhibition curve with a large enough effect; inconclusive = small, poorly fitted or top-dose-only effect, or effect the other way; inactive = flat fitted curve, though single readings scatter. Potencies of inconclusive entries are doubtful fits and often do not repeat. % is set by controls: 0 for no effect and ±100 for the full control effect; potency is the fitted concentration of half-maximal effect.", "data": [{"assay": "Nrf2 qHTS screen for inhibitors; note: nearly all actives have a fitted effect of over 60% in size", "settings": "A549 ARE-Fluc reporter, luciferase luminescence, 18-24 h; activity change, negative = inhibition: at 46 µM (top of the series)", "in_short": "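Concentration-response testing used A549 ARE_Fluc cells at 5000 cells/well. Following an 18-24 h compound incubation, viability was read by fluorescence (Ex 405/Em 525) and luciferase output by luminescence.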", "values": [{"smiles": "CCOC(=O)N1CCN(/[N+]([O-])=N/Oc2ccc([N+](=O)[O-])cc2[N+](=O)[O-])CC1", "Potency": "inconclusive: 0.411 µM [activator, full curve]"}, {"smiles": "COc1ccccc1C(=O)NC(=O)COC(=O)Cn1cnc2c1c(=O)n(C)c(=O)n2C", "activity change, negative = inhibition": "inactive: -2.23%"}, {"smiles": "O=C(N/N=C1\\CCCc2ccccc21)c1ccccc1Cl", "Potency": "inconclusive: 6.51 µM [activator, partial curve, poor fit]"}, {"smiles": "CC(=O)c1ccc(S(=O)(=O)Nc2ccc(C(=O)NCCCn3ccnc3)cc2)cc1", "activity change, negative = inhibition": "inactive: -9.94%"}, {"smiles": "Cc1cc2ccccc2n1-c1ccc(C(=O)N2CCC(C(=O)NCc3ccc(F)cc3)CC2)s1", "Potency": "inconclusive: 20.6 µM [falling, single point]"}, {"smiles": "Cc1ccc(C)c(N(C(=O)c2nsc(Cl)c2Cl)C(C(=O)NC2CCCC2)c2ccc(O)cc2)c1", "note": "(stereo unspecified)", "Potency": "inconclusive: 18.4 µM [falling, single point]"}, {"smiles": "COc1ccc(CNC(=O)Cn2ccc3cc(S(=O)(=O)N4CCCCCC4)ccc32)c(OC)c1", "Potency": "inconclusive: 20.6 µM [falling, single point]"}, {"smiles": "Cc1ccc(C)c(N2CCN(C(=O)COc3cc(=O)n(C)c4ccccc34)CC2)c1", "Potency": "inconclusive: 13 µM [falling, partial curve, poor fit]"}, {"smiles": "CN(C(=O)c1cccc(NC(=O)Cc2ccc(NC(=O)C3CCN(C(=O)C4CCCCC4)CC3)cc2)c1)C1CCC1", "activity change, negative = inhibition": "inactive: 5.92%"}, {"smiles": "Cc1ccc(NC(=O)c2cc(-c3ccccc3)nn2-c2ccccc2)cc1", "activity change, negative = inhibition": "inactive: -22%"}, {"smiles": "CCc1nc(SCc2ccc(C(=O)OC)o2)c2c(=O)n(C)c(=O)n(C)c2n1", "Potency": "inconclusive: 18.4 µM [activator, partial curve]"}, {"smiles": "CCCC(=O)Nc1ccc(Cl)c(NC(=S)NC(=O)C(C)C)c1", "Potency": "inconclusive: 16.4 µM [falling, single point]"}, {"smiles": "Cc1cc(C(=O)CN2C(=O)C(=O)N(Cc3ccccc3)C2=O)c(C)n1-c1ccc2c(c1)OCCO2", "Potency": "inconclusive: 29.1 µM [falling, single point]"}, {"smiles": "Cc1ccc(N/N=C(\\C#N)C(=N)N2CCCCC2)cc1", "Potency": "inconclusive: 2.91 µM [activator, full curve]"}, {"smiles": "COc1cccc(NC(=O)c2ccc(CNS(=O)(=O)c3ccc4c(c3)C(C)(C)C(=O)N4C)cc2)c1", "Potency": "active: 16.4 µM"}, {"smiles": "O=C(Nc1ccc2c(c1)C(=O)NC2=O)c1cc(Cl)ccc1Cl", "activity change, negative = inhibition": "inactive: 2.3%"}, {"smiles": "CC1CCc2nc(-c3cc4ccc(O)cc4oc3=O)sc2C1", "note": "(stereo unspecified)", "Potency": "active: 2.31 µM"}, {"smiles": "Cc1nc(SCC(=O)Nc2ccc(F)cc2)c(C#N)c(C)c1CC(=O)c1ccc(Br)cc1", "Potency": "active: 13 µM"}, {"smiles": "CCN(CCn1cccn1)C(=O)CCc1nnc(-c2ccccc2)o1", "Potency": "inconclusive: 11.6 µM [activator, partial curve, poor fit]"}, {"smiles": "Cc1ccc(-c2nnc(Nc3ccc(O)cc3)c3ccccc23)cc1S(=O)(=O)NCC1CCCO1", "note": "(stereo unspecified)", "Potency": "inconclusive: 9.2 µM [falling, partial curve, poor fit]"}, {"smiles": "Cc1c(C(=O)Nc2ccccc2N2CCN(C)CC2)oc2ccc(F)cc12", "activity change, negative = inhibition": "inactive: -1.59%"}, {"smiles": "O=C(CSc1nc(C2CC2)nc2ccccc12)Nc1ccc2c(c1)OCCO2", "Potency": "inconclusive: 14.6 µM [falling, partial curve, poor fit]"}, {"smiles": "CCC(=O)NC(c1cccc([N+](=O)[O-])c1)c1c(OC(C)=O)ccc2ccccc12", "note": "(stereo unspecified)", "Potency": "inconclusive: 14.6 µM [falling, partial curve, poor fit]"}, {"smiles": "COc1ccc(Cn2ccc3nc(C)c(C(=O)Nc4ccc(OC)cc4OC)cc3c2=O)cc1", "Potency": "inconclusive: 18.4 µM [activator, partial curve]"}, {"smiles": "Cc1ccc([N+](=O)[O-])cc1NC(=O)CN(C(=O)c1ccc(Cl)cc1)C1CCCCC1", "Potency": "inconclusive: 29.1 µM [falling, single point]"}, {"smiles": "COc1ccc(NC(=O)/C(Cl)=C(/Cl)S(=O)Cc2ccc(Cl)cc2)cn1", "note": "(stereo unspecified)", "Potency": "inconclusive: 16.4 µM [falling, single point]"}, {"smiles": "COc1cc2c(-c3ccc4cc[nH]c4c3)c(-c3ccsc3)oc(=O)c2cc1OC", "activity change, negative = inhibition": "inactive: -13.8%"}, {"smiles": "COc1cccc(/C=C/C(=O)OCC(=O)N2c3ccccc3NC(=O)C2(C)C)c1", "Potency": "inconclusive: 29.1 µM [falling, single point]"}, {"smiles": "Cc1ccc2c(c1)c(C)cc[n+]2Cc1ccccc1", "Potency": "inconclusive: 18.4 µM [falling, partial curve]"}, {"smiles": "COc1ccccc1CNC(=O)c1cc(=O)c2ccccc2o1", "Potency": "inconclusive: 29.1 µM [falling, single point]"}, {"smiles": "Cc1ccc(N(C)S(=O)(=O)c2cccc(C(=O)NCC(c3ccco3)N3CCCC3)c2)cc1", "note": "(stereo unspecified)", "activity change, negative = inhibition": "inactive: 5.8%"}, {"smiles": "Cc1ccc(C)c(CN2C(=O)c3ccccc3S(=O)c3ccc(C(=O)NCc4ccco4)cc32)c1", "note": "(stereo unspecified)", "Potency": "inconclusive: 5.17 µM [falling, partial curve, poor fit]"}, {"smiles": "COc1ccc(CN2CCN(Cc3c[nH]c4ccccc34)CC2)cc1", "activity change, negative = inhibition": "inactive: 6.82%"}, {"smiles": "COc1cc(NC(=O)c2cc(OC)c(OC)c(OC)c2)c2ncccc2c1", "Potency": "inconclusive: 23.1 µM [falling, single point]"}, {"smiles": "Cc1nc(C(=O)NC2CCCCC2)sc1C1(C)CC(c2cccc([N+](=O)[O-])c2)=NO1", "note": "(stereo unspecified)", "Potency": "inconclusive: 14.6 µM [falling, partial curve, poor fit]"}, {"smiles": "Cc1c[nH]c2cccc(OCC(O)CNC(C)(C)C)c12", "note": "(stereo unspecified)", "Potency": "inconclusive: 1.84 µM [falling, partial curve, poor fit]"}, {"smiles": "Cc1ccc(OCc2ccc(C(=O)Nc3nccs3)o2)cc1", "Potency": "inconclusive: 16.4 µM [activator, partial curve, poor fit]"}, {"smiles": "O=C(c1csc2c1CCCC2)N1CCN(c2cccc(C(F)(F)F)c2)CC1", "Potency": "inconclusive: 5.17 µM [falling, full curve, poor fit]"}, {"smiles": "C/C(=N\\NC(=O)C1CCCC1)c1ccc(C(C)C)cc1", "Potency": "inconclusive: 20.6 µM [activator, single point]"}, {"smiles": "O=C(CCc1ccc(Oc2cc([N+](=O)[O-])cc([N+](=O)[O-])c2)cc1)N1CCCCCC1", "activity change, negative = inhibition": "inactive: 9.49%"}, {"smiles": "Cc1ccc(C(=O)c2sc3nsc(C)c3c2N)cc1", "Potency": "inconclusive: 11.6 µM [activator, partial curve]"}]}]}
